Data on two molecules can be found in PMC5473912, “Regulation of sub-compartmental targeting and folding properties of the Prion-like protein Shadoo” (Scientific Reports, 2017).

Sequences of proteins named here, by UniProt entry; tags and fusion partners are left off. Residues count along the entry.
UniProt P14211, residues 18-416: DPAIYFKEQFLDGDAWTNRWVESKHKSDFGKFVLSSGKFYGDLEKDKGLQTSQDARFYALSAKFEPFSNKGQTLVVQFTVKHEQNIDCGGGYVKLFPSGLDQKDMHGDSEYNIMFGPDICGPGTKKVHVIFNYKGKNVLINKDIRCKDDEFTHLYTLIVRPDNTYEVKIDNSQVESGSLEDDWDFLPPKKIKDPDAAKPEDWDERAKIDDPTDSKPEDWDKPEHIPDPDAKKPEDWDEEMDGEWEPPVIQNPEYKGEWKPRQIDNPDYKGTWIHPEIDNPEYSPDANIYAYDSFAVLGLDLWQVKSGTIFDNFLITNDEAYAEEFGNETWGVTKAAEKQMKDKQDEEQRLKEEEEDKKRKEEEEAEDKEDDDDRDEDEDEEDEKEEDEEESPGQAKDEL

The target of the experiment is Calreticulin (CRT), endogenous mouse (mouse (endogenous in GT1)) (UniProt P14211). In words: co-IP; Calreticulin immunoprecipitated from GT1 lysates (JS buffer, 1% TX-100, 150 mM NaCl, pH 7.5) with anti-CRT Ab and protein A-Sepharose overnight at 4 °C; Sho revealed by Western blot with SPRN-R12; cells under control conditions or cholesterol depletion (βCD 10 mM, 1 h).

Results are given in words; binding and its absence hold for the method and conditions named. In cells and extracts the contact can be indirect. Some binding calls cover weakened binding; strength is not graded here.

B1: Shadoo (Sho), mature fully glycosylated ~22 kDa isoform, endogenous mouse (natural protein, mouse (endogenous in GT1), UniProt Q8BWU1 25-122, looked up)
chain: KGGRGGARGSARGVRGGARGASRVRVRPAPRYGSSLRVAAAGAAAGAAAGVAAGLATGSGWRRTSGPGELGLEDDENGAMGGNGTDRGVYSYWAWTSG
modifications: fully N-glycosylated (complex-glycosylated)
notes: Shadoo (Sho, SPRN), mouse, the mature fully glycosylated isoform that migrates at ~22 kDa; also called mature Sho; mature glycosylated Sho; source: endogenous, GT1 lysate
For B1, the binding result is “binds”.

B2: Shadoo (Sho), unglycosylated ~14 kDa isoform, endogenous mouse (protein, UniProt Q8BWU1 25-122)
chain: B1 chain
On to B2, for which the binding result is given as “binds”.
